These results are taken from publication PMC7181738.

Protein sequences, listed by entry. Tags and fused reporters are not part of them. Residues count along the entry.
UniProt Q15843, residues 1-76: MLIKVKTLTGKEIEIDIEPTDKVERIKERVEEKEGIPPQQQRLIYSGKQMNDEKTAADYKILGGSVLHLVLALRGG

The target in the assay is neural precursor cell-expressed, developmentally downregulated 8 (human (endogenous in HepG2)) (UniProt Q15843). Description: co-IP; endogenous proteins; HepG2 cells treated with OA (500 μM) for 24 h; lysate (1.5 mg) with anti-NEDD8 (10 μg) at 4 °C overnight, Protein A/G Sepharose beads; Western blotting. For orientation: In western blotting, separated proteins are transferred to a membrane and probed.

These are yes or no findings as the source states them, for the method shown. Binding seen in cells or lysates may run through a third protein.

B1: LXRα (protein, UniProt Q13133 1-447)
chain: MSLWLGAPVPDIPPDSAVELWKPGAQDASSQAQGGSSCILREEARMPHSAGGTAGVGLEAAEPTALLTRAEPPSEPTEIRPQKRKKGPAPKMLGNELCSVCGDKASGFHYNVLSCEGCKGFFRRSVIKGAHYICHSGGHCPMDTYMRRKCQECRLRKCRQAGMREECVLSEEQIRLKKLKRQEEEQAHATSLPPRASSPPQILPQLSPEQLGMIEKLVAAQQQCNRRSFSDRLRVTPWPMAPDPHSREARQQRFAHFTELAIVSVQEIVDFAKQLPGFLQLSREDQIALLKTSAIEVMLLETSRRYNPGSESITFLKDFSYNREDFAKAGLQVEFINPIFEFSRAMNELQLNDAEFALLIAISIFSADRPNVQDQLQVERLQHTYVEALHAYVSIHHPHDRLMFPRMLMKLVSLRTLSSVHSEQVFALRLQDKKLPPLLSEIWDVHE
Take B1: the binding entry is recorded as “no binding”.
